To fix the notation:
B1: VH domain clone G3. (SEQ ID NO: 50) (protein)
VH: QVQLVQSGAEVKKPGASVKVSCKVSGYTLTELSMHWVRQAPGKGLEWMGGFDPEDGETIYAQKFQGRVTMTRDTSISTAYMELSRLRSDDTAVYYCATHGGDRSYWGQGTLVTVSS
B2: VH domain clone F05. (SEQ ID NO: 51) (protein)
VH: QVQLVQSGAEVKRPGASVKVSCKASGYTLTELSMHWVRQAPGKGLEWMGGFDPEDGETIYAQKFQGRVTMTEDTSTDTAYMELSSLRSEDTAVYYCATHGGDRSYWGQGTLVTVSS
B3: VH domain clone H3. (SEQ ID NO: 44) (protein)
VH: QVQLVQSGAEVKKPGASVKVSCRASGYTFTNSFMQWVRQVPGQRLEWVGLSNPSGDYTVYAPKFQGRVTMTTDTATSTFYMELFSLRSDDTAVYYCATHGGDRSYWGQGTLVTVSS
B4: VH domain clone B4. (SEQ ID NO: 45) (protein)
VH: QVQLVQSGAEVKKPGASVKVSCRASGYTFTNSFMQWVRQVPGQRLEWVGLSNPSGDYTVYAPKLQGRVTMTTDTATGTFYMELFSLRSDDTAVYYCATHGGDRSYWGQGTLVTVSS
B5: VH domain clone E6. (SEQ ID NO: 38) (protein)
VH: QMQLVQSGAEVKRPGASVKVPCKASGYTFTDYYLHWVRQAPGQGLKWMGWINPNSGGTNYAQKFQGRVTMTRDTSISTAYMELSRLRSEDTAVYYCATHGGDRSYWGQGTLVTVSS
B6: VH domain clone H05. (SEQ ID NO: 46) (protein)
VH: EVQLVQSGGGVVQPGGSLRLSCAASGFTFRSYGMHWVRQAPGKGLEWVAFILFDGNNKYYADSVKGRFTISSDNSKNTLYLQMNSLRAEDTAVYYCATHGGDRSYWGQGTLVTVSS
B7: VH domain clone E2. (SEQ ID NO: 28) (protein)
VH: QMQLVQSGAEVKKPGASVKISCKTSGYTFTDYYIQWVRQAPGQGLEWVGWINPNSGNTGYAQKFQGRVTMTRDTSISTAYMELSSLRSEDTAVYYCATHGGDYSYWGQGTLVTVSS
B8: VH domain clone A1. (SEQ ID NO: 39) (protein)
VH: QVQLVQSGPEVKKPGTSVKVSCKASGFTFTSSAVQWVRQARGQRLEWIGWIVVGSGNTNYAQKFQERVTITRDMSTSTAYMELSSLRSEDTAVYYCATHGGDRSYWGQGTLVTVSS
B9: VH domain clone H7. (SEQ ID NO: 40) (protein)
VH: QVQLVQSGPEVKKPGTSVKVSCKASGFTFTSSAMQWVRQARGQRLEWIGWIVVGSGNTNYAQKFQERVTITRDMSTSTAYMELSSLRSEDTAVYYCATHGGDRSYWGQGTLVTVSS
B10: VH domain clone G04. (SEQ ID NO: 41) (protein)
VH: QVQLVQSGAEVKKPGASVKVSCKASGFTFTSYAISWVRQARGQRLEWIGWIVVGSGNTNYAQKFQERVTITRDMSTSTAYMELSSLRSEDTAVYYCATHGGDRSYWGQGTLVTVSS
B11: VH domain clone H2. (SEQ ID NO: 33) (protein)
VH: QMQLVQSGAEVKNPGASVKVSCKASGYPFSAYYIQWVRQAPGQGLEWMGWLNPNSGDTHSAQKFQGRVTMTRDTSISTAYMELSGLTSDDTAVYYCATHGGDRSYWGQGTLVTVSS
B12: VH domain clone F11. (SEQ ID NO: 34) (protein)
VH: QMQLVQSGAEVKNPGASVKVSCKASGYPFSAYYIQWVRQAPGQGLEWMGWLNPNSGDTHSAQKFQGRVTMTRDTSISTAYMELSGPTSDDTAVYYCATHGGDRSYWGQGTLVTVSS
B13: VH domain clone G12. (SEQ ID NO: 53) (protein)
VH: QVQLVQSGAEVKKPGSSVKVSCKASGGAFNAYPISWVRQAPGQGLEWMGGIIPVSGTPNYAQKFQGRVTITADKSTYTAYMELSSLRSEDTAVYYCATHGGDRSYWGQGTLVTVSS
B14: VH domain clone A3. (SEQ ID NO: 29) (protein)
VH: QVQLVQSGAEVKKPGASVRVSCKASGYTFSDYYIQWVRQAPGQGLEWMGWINPNSGGTYFAQKFQGRVTMTRDTSISTAYMELSSLTSDDTAVYYCATHGGDRGYWGQGTLVTVSS
B15: VH domain clone F10. (SEQ ID NO: 31) (protein)
VH: QMQLVQSGAEVKKPGASVKVSCKASGYTFTDYYIQWVRQAPGQGLEWMGWINPDSGGTYFAQKFQGRVAMTRDTSINTAYMELSSLRSDDTAVYYCATHGGDRSYWGQGTLVTVSS
B16: VH domain clone F3. (SEQ ID NO: 48) (protein)
VH: QVQLVQSGAEVKKPGASVKVSCKASGYTFISHGMSWVRQAPGQGLEWMGWISADNGNTNYAQKFQERVTITRDMSTSTAYMELSSLRSEDTAVYYCATHGGDRSYWGQGTLVTVSS
B17: VH domain clone A12. (SEQ ID NO: 49) (protein)
VH: QVQLVQSGAEVKKPGASVKVSCKASGYTFISHGMSWVRQAPGQGLEWMGWISADNGNTKYAQKFQDRVTLTTDTSTSTAYLELRSLRSDDTAVYYCATHGGDRSYWGQGTLVTVSS
B18: VH domain clone H1. (SEQ ID NO: 37) (protein)
VH: EVQLLESGAEVKQPGASVKVSCKTSGYTFTDYHLHWVRQAPGQGLEWMGWINPNSGGTNSAPKFQGRVTMTRDTSISTAYMELSGLTSDDTAVYYCATHGGDRSYWGQGTLVTVSS
B19: VH domain clone E9. (SEQ ID NO: 57) (protein)
VH: QVQLVESGAEVRKPGESLQISCKASGYRFTNYWIGWVRQMPGKGLEWMGITYPADSTTVYSPSFQGQVTISADKSISTVFLQWSSLRSEDTAVYYCATHGGDRSYWGQGTLVTVSS
B20: VH domain clone C4. (SEQ ID NO: 23) (protein)
VH: QMQLVQSGAEVKKPGSSVRVSCKASGGTFSRHAISWVRQAPGQGLEWIGGILPILKTPNYAQRFQGRVTINADESTSTVYMEMSGLRSEDTAVYYCATHGGDRSYWGQGTLVTVSS
B21: VH domain clone C05. (SEQ ID NO: 26) (protein)
VH: QMQLVQSGAEVKKPGSSVRVSCKASGGTFSRHAISWVRQAPGQGLEWIGGVLPILKTPNYAQRFQGRVTINADESTSTVYMELSSLRSEDTAVYYCATHGGDRSYWGQGTLVTVSS
B22: VH domain clone D07. (SEQ ID NO: 25) (protein)
VH: QMQLVQSGAEVKKPGSSVRVSCKASGGTFSRHAISWVRQAPGQGLEWIGGILPILKTPNYAQRFQGRVTINADESTSTVYMEMSSLRSDDTAVYYCATHGGDRSYWGQGTLVTVSS
B23: VH domain clone E05. (SEQ ID NO: 27) (protein)
VH: QVQLVQSGPKVKKPGSSVRVSCKASGGTFSRHAISWVRQAPGQGLEWIGGILPILKTPNYAQRFQGRVTINADESTSTVYMEMSSLRSEDTAVYYCATHGGDRSYWGQGTLVTVSS
B24: VH domain clone C3. (SEQ ID NO: 30) (protein)
VH: QMQLVQSGAEVKKPGASVKVSCKASGYTFTDYYIQWVRQAPGQGLEWIGGILPILKTPNYAQRFQGRVTINADESTSTVYMEMSSLRSEDTAVYYCATHGGDRSYWGQGTLVTVSS
B25: VH domain clone B12. (SEQ ID NO: 24) (protein)
VH: QMQLVQSGAEVKKPGSSVRVSCKASGGTFSRHAISWVRQAPGQGLEWIGGILPILKTPNYAQRFQGRVTINADESTSTVYMEMSSLRSENTAVYYCATHGGDRSYWGQGTLVTVSS
B26: VH domain clone E11. (SEQ ID NO: 36) (protein)
VH: QVQLVQSGAEVEKPGASVKVSCKASGYTFTDYYIHWVRQAPGQGLEWMRGIIPIFGTANYAQKFQGRVTITADESTSTAYMELSSLRSEDTAVYYCATHGGDRSYWGQGTLVTVSS
B27: VH domain clone C06. (SEQ ID NO: 54) (protein)
VH: QMQLVQSGAEVKKPGASVKVSCMASGYTFTGHYIHWVRQAPGQGLEWMGGIIPIFGTANYAQKFQGRVTITADESTSTAYTELSSLRSEDTAVYYCATHGGDRSYWGQGTLVTVSS
B28: VH domain clone F08. (SEQ ID NO: 56) (protein)
VH: QVQLVQSGAEVKKPGASVKVSCKASGYTFTSSYIHWVRQAPGQGLEWMGGIIPIFGTANYAQKFQGRVTITADKSTSTAYMELSSLRSEDTAMYYCATHGGDRSYWGQGTLVTVSS
B29: VH domain clone H12. (SEQ ID NO: 52) (protein)
VH: QVQLVQSGAEVKKPGASVKVSCKASGYTFTDNYVHWVRQAPGQGLEWMGGIIPIFGTANYAQKFQGRVTITADESTSTAYMELSSLRSEDTAVYYCATHGGDRSYWGQGTLVTVSS
B30: VH domain clone B2. (SEQ ID NO: 42) (protein)
VH: QVQLVQSGAEVKKPGASVKVSCKASGYSFTNYQVQWVRQAPGQGLEWLGVINTGVGSTNYAQKFQGRVTMTRDTATSTVYMELSSLRSEDTAVYYCATHGGDRSYWGQGTLVTVSS
B31: VH domain clone A7. (SEQ ID NO: 43) (protein)
VH: QVQLVQSGAEVKKPGASVKVSCKASGYSFTNYPVQWVRQAPGQGLEWLGVINTGVGSTNYAQKFQGRVTMTRDTATSIVYMELSSLRSEDTAVYYCATHGGDRSYWGQGTLVTVSS
B32: VH domain clone C12. (SEQ ID NO: 32) (protein)
VH: QVQLVQSGAEVKKPGASVKVSCKASGYTFTDYYIQWVRQAPGEGLEWMGWMNPDSGGTIYAQKFQGRVTMTRDTSISTAYMELSRLRPDDTAVYYCATHGGDRSYWGQGTLVTVSS
B33: VH domain clone B1. (SEQ ID NO: 35) (protein)
VH: QMQLVQSGAEVRKPGASVKVSCKASGYSFSDYYIHWVRQAPGQGLEWIGWINPNNGNTTYAQKFQGRVTMIRDTSISTAYMELSELRSDDTAVYYCATHGGDRSYWGQGTLVTVSS

Results are given in words; binding and its absence hold for the method and conditions named. Some entries that bind do so weakly or less than the wild type.

The test has as its target human PDGFRb (human) (UniProt P09619). Nature of the test: dsDNA display selection of the HCDR3 shuffled VH library; clone sequenced from the selected pool.
As to B1, the binding entry was “binds”.
The result for B2 reads “binds”.
Turning to B3, the binding entry is on record as “binds”.
As for B4, the binding result is recorded as “binds”.
Then B5, with “binds”; and B6, with “binds”; and B7, with “binds”.
The result for B8 reads “binds”.
Then B9, with “binds”.
Take B10: the binding result was “binds”.
On to B11, for which the binding entry is “binds”.
Consider B12, for which the binding result is recorded as “binds”.
The result for B13 reads “binds”; that for B14, “binds”.
The result for B15 reads “binds”.
Regarding B16, the binding result was “binds”.
For B17, the binding entry is reported as “binds”.
The result for B18 reads “binds”.
Then B19, with “binds”.
The result for B20 reads “binds”; that for B21, “binds”; that for B22, “binds”.
As for B23, the binding entry is “binds”.
The result for B24 reads “binds”.
The result for B25 reads “binds”; that for B26, “binds”.
The result for B27 reads “binds”; that for B28, “binds”.
Consider B29, for which the binding entry is recorded as “binds”.
The result for B30 reads “binds”; that for B31, “binds”; that for B32, “binds”.
Then B33, with “binds”.

The values are drawn from patent publication US20140113831A1.
